In US20220213181A1:
No constants are given. Whether binding was seen depends on the method and setting. Some entries that bind do so weakly or less than the wild type. Sequences can lack the tags named with a protein.

T1: Human ANGPTL4(26-161)-FLAG-His6-Avi (human)
T1 sequence (chain, biotin on the C-terminal Avi tag (BirA) where the protein is immobilised): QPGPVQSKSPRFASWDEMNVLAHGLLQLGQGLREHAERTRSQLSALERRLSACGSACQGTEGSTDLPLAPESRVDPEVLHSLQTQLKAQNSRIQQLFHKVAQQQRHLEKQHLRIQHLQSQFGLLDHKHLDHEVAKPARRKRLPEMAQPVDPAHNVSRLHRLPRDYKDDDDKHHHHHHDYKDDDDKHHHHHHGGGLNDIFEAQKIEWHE

B1: NEG310 (antibody, human IgG1, kappa, V domains shown)
VH: QVQLVQSGAEVKKPGASVKVSCKASGYTFTSYTMHWVRQAPGQGLEWMGYINPSSGYTKYNQKFQGRVTMTADKSTSTAYMELSSLRSEDTAVYYCAEGWLLLAMDYWGQGTLVTVSS
VL: EAVVTQSPATLSLSPGERATLSCRSSTGAVTTSNYAIWVQEKPGQAPRGLIGGTNNRAPGIPARFSGSLSGDDATLTISSLQPEDFAVYFCALWYSDHWVFGQGTKVEIKR
B2: NEG318 (antibody, human IgG1, kappa, V domains shown)
VH: QVQLVQSGAEVKKPGASVKVSCKASGYTFTSFWITWVRQAPGQGLEWMGDIYPGGATTNYNEKLQGRVTLTVDTSTSTAYMELRSLRSDDTAVYYCARSPPQVGPFDYWGQGTLVTVSS
VL: DIQMTQSPSSLSASVGDRVTITCQASDYIYHWLAWYQQKPGKAPKLLISGASSLETGVPSRFSGSGSGKDYTFTISSLQPEDIATYYCQQYWSIPWTFGQGTKLEIKR
B3: NEG319 (antibody, human IgG1, kappa, V domains shown)
VH: QVQLVQSGAEVKKPGASVKVSCKASGYTFTSFWITWVRQAPGQGLEWMGDIYPGGANTNYNEKLQGRVTLTVDTSTSTAYMELRSLRSDDTAVYYCARSPPQVGPFDYWGQGTLVTVSS
VL: DIQMTQSPSSLSASVGDRVTITCQASEYIINWLAWYQQKPGKAPKLLISGATGLETGVPSRFSGSGSGKDYTFTISSLQPEDIATYYCQQYWSIPWTFGQGTKLEIKR
B4: NEG313 (antibody, human IgG1, kappa, V domains shown)
VH: QVQLVQSGAEVKKPGASVKVSCKASGYTFNNYWITWVRQAPGQGLEWMGDFYPGGGSTNYNAKLQGRVTLTVDTSTSTAYMELRSLRSDDTAVYYCARSPPQVAPFDYWGQGTLVTVSS
VL: DIQMTQSPSSLSASVGDRVTITCQASDYIYHWLGWYQQKPGKAPKLLISGASGLETGVPSRFSGSGSGKDYTFTISSLQPEDIATYYCQQYWSTPWTFGQGTKLEIKR
B5: NEG315 (antibody, human IgG1, kappa, V domains shown)
VH: QVQLVQSGAEVKKPGASVKVSCKASGYTFTNYWITWVRQAPGQGLEWMGDFYPGGGNTNYNAKLQGRVTLTVDTSTSTAYMELRSLRSDDTAVYYCARSPPQVAPFDYWGQGTLVTVSS
VL: DIQMTQSPSSLSASVGDRVTITCQASEYIYNWLGWYQQKPGKAPKLLISGASGLETGVPSRFSGSGSGKDYTFTISSLQPEDIATYYCQQYWSTPWTFGQGTKLEIKR
B6: NEG278 (antibody, human IgG1, kappa, V domains shown)
VH: QVQLVQSGAEVKKPGASVKVSCKASAYTFTSSWMQWVRQAPGQGLEWMGEIDPSDNYANYNQKFQGRVTLTVDTSTSTAYMELSSLRSEDTAVYYCASGSYFSNFFDYWGQGTLVTVSS
VL: EIVMTQSPATLSVSPGERATLSCKASQDIGSNLNWLQQKPGQAPRRLIYAASVREPGIPARFSGSRSGSEYTLTISSLQSEDFAVYYCLQYASSPWTFGQGTKVEIKR

The binders below were run against T1, Human ANGPTL4(26-161)-FLAG-His6-Avi (human) (assay: direct ELISA on MSD streptavidin plate, biotinylated antigen immobilized at 1 nM, antibody at 1 nM, Sulfo-tagged anti-human IgG detection).

Row | Binder | binding
1 | B1 | binds
2 | B2 | binds
3 | B3 | binds
4 | B4 | binds
5 | B5 | binds
6 | B6 | binds
